The test system of this data set is catalepsy. In words: Cataleptic activity in rats, compound alone without methylphenidate. As to conditions: rat.

Structures are written as SMILES. Structures can show the parent of a compound that is named as a salt.

Take `COc1c(C(=O)N[C@@H]2C[C@H]3CC[C@@H](C2)N3Cc2ccc(F)cc2)sc2ncccc12` [Example 11, 3-Methoxythieno[2,3-b]pyridine-2-carboxylic acid [(8-(4-fluorobenzyl)-8-azabicyclo[3.2.1]oct-3β-yl)]amide hydrochloride]: the “Ratio: Catalepsy/Normalization” value (from i.p. ED50 values) was above 129. With `CSc1c(C(=O)N[C@@H]2C[C@H]3CC[C@@H](C2)N3Cc2ccc(Cl)cc2)sc2nccnc12` [Example 31, 3-Methylsulfanylthieno[2,3-b]pyrazine-2-carboxylic acid [8-(4-chlorobenzyl)-8-azabicyclo[3.2.1]oct-3β-yl]amide hydrochloride], the “Ratio: Catalepsy/Normalization” value (from p.o. ED50 values) was 4.

`CSc1c(C(=O)N[C@@H]2C[C@H]3CC[C@@H](C2)N3Cc2ccc(F)cc2)sc2nccnc12` [Example 32, 3-Methylsulfanylthieno[2,3-b]pyrazine-2-carboxylic acid [8-(4-fluorobenzyl)-8-azabicyclo[3.2.1]oct-3β-yl]amide hydrochloride]: for the setting “from p.o. ED50 values”, the “Ratio: Catalepsy/Normalization” value amounted to 4. `COc1cccc(C(=O)N[C@@H]2C[C@H]3CC[C@@H](C2)N3Cc2ccccc2)c1OC` [Tropapride, reference compound]: the “Ratio: Catalepsy/Normalization” value (from i.p. ED50 values) is recorded as 0.9. As for `COc1c(C(=O)N[C@@H]2C[C@H]3CC[C@@H](C2)N3Cc2ccc(F)cc2)sc2nccnc12` [Example 29, 3-Methoxythieno[2,3-b]pyrazine-2-carboxylic acid [8-(4-fluorobenzyl)-8-azabicyclo[3.2.1]oct-3β-yl]amide hydrochloride], the “Ratio: Catalepsy/Normalization” value (from p.o. ED50 values) came out at 15.6. As to `COc1c(C(=O)N[C@@H]2C[C@H]3CC[C@@H](C2)N3Cc2ccsc2)sc2ncccc12` [Example 12, 3-Methoxythieno[2,3-b]pyridine-2-carboxylic acid [8-thiophen-3-ylmethyl-8-azabicyclo[3.2.1]oct-3β-yl]amide hydrochloride], the “Ratio: Catalepsy/Normalization” value (from i.p. ED50 values) is recorded as above 32.

Consider `COc1c(C(=O)N[C@@H]2C[C@H]3CC[C@@H](C2)N3CC2CCCCC2)sc2ncccc12` [Example 10, 3-Methoxythieno[2,3-b]pyridine-2-carboxylic acid [8-cyclohexylmethyl-8-azabicyclo[3.2.1]oct-3β-yl]amide fumarate], for which the “Ratio: Catalepsy/Normalization” value (from i.p. ED50 values) was above 8. As for `COc1c(C(=O)N[C@@H]2C[C@H]3CC[C@@H](C2)N3Cc2ccc(Cl)cc2)sc2ncccc12` [Example 8, 3-Methoxythieno[2,3-b]pyridine-2-carboxylic acid [8-(4-chlorobenzyl)-8-azabicyclo[3.2.1]oct-3β-yl]amide hydrochloride], where the note is “from i.p. ED50 values”, the “Ratio: Catalepsy/Normalization” value was above 30. The same measure, in the same setting: next, `CSc1c(C(=O)N[C@@H]2C[C@H]3CC[C@@H](C2)N3Cc2ccccc2)sc2ncccc12` [Example 2, 3-Methylsulfanylthieno[2,3-b]pyridine-2-carboxylic acid (8-benzyl-8-azabicyclo[3.2.1]oct-3β-yl)amide hydrochloride]: 3.2.

In the case of `COc1c(C(=O)N[C@@H]2C[C@H]3CC[C@@H](C2)N3Cc2ccccc2)sc2nccnc12` [Example 27, 3-Methoxythieno[2,3-b]pyrazine-2-carboxylic acid (8-benzyl-8-azabicyclo[3.2.1]oct-3β-yl)amide hydrochloride], where the note is “from p.o. ED50 values”, the “Ratio: Catalepsy/Normalization” value was 14. `COc1c(C(=O)N[C@@H]2C[C@H]3CC[C@@H](C2)N3Cc2ccccc2)oc2cccnc12` [Example 4, 3-Methoxyfuro[3,2-b]pyridine-2-carboxylic acid (8-benzyl-8-azabicyclo[3.2.1]oct-3β-yl)amide dihydrochloride]: under “from i.p. ED50 values”, the “Ratio: Catalepsy/Normalization” value is on record as above 40.
